Assay [1] has as its target T1, Mxβ_(19–148), M. xanthus RNA polymerase β subunit fragment spanning residues 19 to 148 (in pUT18C) (Myxococcus xanthus) (UniProt Q1D7U3).
T1 sequence: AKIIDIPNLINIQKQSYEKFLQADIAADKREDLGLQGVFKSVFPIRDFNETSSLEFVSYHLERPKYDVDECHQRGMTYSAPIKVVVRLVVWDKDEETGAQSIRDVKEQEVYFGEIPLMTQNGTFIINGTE
Kind of assay: two-hybrid; E. coli BACTH (T25/T18 fragments of B. pertussis adenylate cyclase) in BTH101 (cya-); CarD constructs in pKT25, Mxβ19-148 or CarG in pUT18C; reporter lacZ β-Gal activity of liquid cultures, mean of three independent experiments (Fig. 2, 4C, 4D).

Assay [2] addresses T2, CarG (in pUT18C) (Myxococcus xanthus) (UniProt Q50888).
T2 sequence: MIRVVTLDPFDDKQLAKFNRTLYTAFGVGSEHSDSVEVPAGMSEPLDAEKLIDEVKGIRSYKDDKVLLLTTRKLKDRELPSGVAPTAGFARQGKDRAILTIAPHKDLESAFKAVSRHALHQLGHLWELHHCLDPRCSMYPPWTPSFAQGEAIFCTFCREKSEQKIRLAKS
The description is as above.

Assay [3] concerns the target T2, CarG (in pUT18C) (Myxococcus xanthus). The assay is described as follows: two-hybrid; E. coli BACTH in BTH101 (cya-); CarD constructs in pKT25, partner in pUT18C or pUT18; spot assay (Fig. 4B); for Fig. 6B and 6E the legend does not tell the read-out.
The target in assay [4] is T3, Mxβ_(19–148) K124A (in pUT18C) (Myxococcus xanthus) (UniProt Q1D7U3).
T3 sequence: T1 sequence with K106A
Kind of assay: two-hybrid; E. coli BACTH (T25/T18 fragments of B. pertussis adenylate cyclase) in BTH101 (cya-); CarD constructs in pKT25, Mxβ19-148 or CarG in pUT18C; reporter lacZ β-Gal activity of liquid cultures, mean of three independent experiments (Fig. 2, 4C, 4D).

The target in assay [5] is T4, Mxβ_(19–148) D122A (in pUT18C) (Myxococcus xanthus) (UniProt Q1D7U3).
T4 sequence: T1 sequence with D104A
The assay is described as above.

Assay [6] deals with T1, Mxβ_(19–148), M. xanthus RNA polymerase β subunit fragment spanning residues 19 to 148 (in pUT18C) (Myxococcus xanthus). Kind of assay: two-hybrid; E. coli BACTH in BTH101 (cya-); CarD constructs in pKT25, partner in pUT18C or pUT18; spot assay (Fig. 4B); for Fig. 6B and 6E the legend does not tell the read-out.

Positions count from the first letter of the chain named. Names may count otherwise. No constants are given. Whether binding was seen depends on the method and setting. Some entries that bind do so weakly or less than the wild type.

The values below come from publication PMC4374960 (2015).

B1: CarD_(61–179), C-terminal part of CarDNt (in pKT25) (domain or fragment, UniProt Q50887 61-179)
chain: LAIGVRKVASAEDVEAIFTFLRSDSDKADLDWKQRARTNLDRMTQGGIMGLAEVVKGLQVLSELRPLPTKERELYDNARHLLVTEVAAALGTAEVNAEDAIDIVLFPPGRERPKRTAAE
Regarding B1, the binding entry is “no binding” in assay [1] and “binds” in assay [2].

B2: CarDNt, the 179-residue N-terminal domain of Myxococcus xanthus CarD (in pKT25) (domain or fragment, UniProt Q50887 1-179)
chain: MPEGSASLQLAVGDRVVYPNQGVCRVSAIDVKEVAGQKLTFVTMRREEDGAVVMVPEGKVLAIGVRKVASAEDVEAIFTFLRSDSDKADLDWKQRARTNLDRMTQGGIMGLAEVVKGLQVLSELRPLPTKERELYDNARHLLVTEVAAALGTAEVNAEDAIDIVLFPPGRERPKRTAAE
In the case of B2, the binding entry in assay [3], in assay [1], in assay [4] and in assay [5] was “binds” each time.

B3: CarDNt F41A (in pKT25) (domain or fragment, UniProt Q50887 1-179)
chain: B2 chain with F41A
For the molecule B3, the binding result in assay [3] is “binds”.

B4: CarDNt K130A/R132A (in pKT25) (domain or fragment, UniProt Q50887 1-179)
chain: B2 chain with K130A, R132A
B4: the binding entry in assay [6] was “binds”.

B5: CarDNt P56A (in pKT25) (domain or fragment, UniProt Q50887 1-179)
chain: B2 chain with P56A
Take B5: in assay [3], the binding entry is “binds”.

B6: CarDNt T129 mutant (in pKT25) (domain or fragment, UniProt Q50887 1-179)
chain: B2 chain with T129A
For the molecule B6, in assay [6], the binding entry is given as “binds”.

B7: CarDNt K93A/R95A/R97A (in pKT25) (domain or fragment, UniProt Q50887 1-179)
chain: B2 chain with K93A, R95A, R97A
As for B7, the binding entry in assay [6] is on record as “binds”.

B8: CarDNt M54A (in pKT25) (domain or fragment, UniProt Q50887 1-179)
chain: B2 chain with M54A
B8: the binding entry in assay [3] was “binds”.

B9: CarDNt W92 mutant (in pKT25) (domain or fragment, UniProt Q50887 1-179)
chain: B2 chain with W92A
Regarding B9, the binding entry in assay [6] is “binds”.

B10: CarDNt L100 mutant (in pKT25) (domain or fragment, UniProt Q50887 1-179)
chain: B2 chain with L100A
Consider B10, for which the binding entry in assay [6] is “binds”.

B11: CarD_(1–72), N-terminal module of CarDNt (in pKT25) (domain or fragment, UniProt Q50887 1-72)
chain: MPEGSASLQLAVGDRVVYPNQGVCRVSAIDVKEVAGQKLTFVTMRREEDGAVVMVPEGKVLAIGVRKVASAE
As to B11, the figures for the binding entry in assay [1] and in assay [2] were “binds” and “no binding”, respectively.
